Assay results taken from PubChem BioAssay AID1671190 (National Center for Advancing Translational Sciences (NCATS), 2021).
Values joined by “and” are separate entries in the source; they are usually repeats but may differ in a detail not shown here. Identical values can stand only once. The campaign covered roughly 580,000 compounds. About 6,100 (1.1%) were called active. Inconclusive means that the source gave no clear call. Such entries were picked first, then a sample of the others. Calls follow the shape of the dose curve; as a rule, active = well fitted inhibition curve with a large enough effect; inconclusive = small, poorly fitted or top-dose-only effect, or another doubt; inactive = no such curve, though single readings can be large or run the other way. Potencies beside an inconclusive call are fits to weak or partial responses and may not hold up.

Chains of the proteins cited; added tags and fusions are not shown.
UniProt P18054, whole entry, looked up: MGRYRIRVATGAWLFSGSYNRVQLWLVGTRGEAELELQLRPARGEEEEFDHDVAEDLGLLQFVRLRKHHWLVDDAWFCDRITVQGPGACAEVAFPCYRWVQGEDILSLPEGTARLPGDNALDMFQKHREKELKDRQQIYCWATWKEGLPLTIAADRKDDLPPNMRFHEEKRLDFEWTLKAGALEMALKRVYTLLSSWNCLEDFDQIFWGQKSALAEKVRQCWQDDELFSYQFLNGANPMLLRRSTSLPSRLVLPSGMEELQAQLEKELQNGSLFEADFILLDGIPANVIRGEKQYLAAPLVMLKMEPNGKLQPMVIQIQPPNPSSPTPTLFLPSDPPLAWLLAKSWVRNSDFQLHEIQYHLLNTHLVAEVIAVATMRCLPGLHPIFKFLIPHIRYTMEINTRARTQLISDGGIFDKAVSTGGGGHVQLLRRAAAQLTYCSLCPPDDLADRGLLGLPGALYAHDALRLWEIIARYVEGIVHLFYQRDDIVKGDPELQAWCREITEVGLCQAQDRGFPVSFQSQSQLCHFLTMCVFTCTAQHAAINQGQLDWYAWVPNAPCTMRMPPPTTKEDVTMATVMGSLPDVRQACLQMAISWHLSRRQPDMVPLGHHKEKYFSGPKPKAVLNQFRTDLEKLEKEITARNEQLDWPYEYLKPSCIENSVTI

Biological target: Polyunsaturated fatty acid lipoxygenase ALOX12 (Homo sapiens) (UniProt P18054)
Assay: Primary qHTS assay for inhibitors of human arachidonate 12S-lipoxygenase (ALOX12): Round 2
Conditions: purified 12hLO, xylenol orange hydroperoxide absorbance; activity change, negative = inhibition: at 108 µM (top of the series) unless noted
Method in brief: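 Purified human 12hLO at 150 nM in 25 mM Hepes, 0.01% Triton X-100, pH 7.0, preincubated 15 min at room temperature with compound. Reaction started with 40 uM arachidonic acid, 30 min at room temperature. Hydroperoxide measured by Fe-xylenol orange, 573/405 nm absorbance ratio.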
% is scaled to controls: 0 for no effect and ±100 for the full control effect; potency is read from the fitted curve at half-maximal effect.

Row | Structure (SMILES) | activity change, negative = inhibition | Potency
1 | CC(C)c1ccccc1-n1c(SCC(=O)c2ccc3c(c2)NC(=O)CO3)nc2ccccc2c1=O | inactive: 19.6% | 
2 | CC1CC(C)CN(C(=O)c2ccc(Oc3ccccc3)cc2)C1 (configuration not stated) | inactive: -26.9% | 
3 | COc1ccccc1-c1cc2nc(NCCc3ccc(S(N)(=O)=O)cc3)ccn2n1 | inactive: 9.09% | 
4 | CCOC(=O)C(C(C)=O)c1c(Br)c(O)c(O)c2c(C(=O)c3ccc(C)cc3)coc12 (configuration not stated) |  | inconclusive: 1.41 µM [inhibitor, full curve, poor fit]
5 | Cc1ccnc(NS(=O)(=O)c2ccc(NC(=O)c3c(-c4ccccc4Cl)noc3C)cc2)n1 |  | inconclusive: 56.2 µM [inhibitor, partial curve, poor fit]
6 | CCc1cccc(N2C(=O)CS(=O)(=O)C23C(=O)N(Cc2ccc(F)cc2)c2ccc(C)cc23)c1 (configuration not stated) | inactive: -17.2% | 
7 | CC1(C)Oc2cc(N)c([N+](=O)[O-])cc2O1 |  | inconclusive: 70.8 µM [inhibitor, partial curve, poor fit]
8 | CN(C)c1ncc2nc(-c3cccs3)c(=O)n(C3CC3)c2n1 |  | inconclusive: 28.2 µM [inhibitor, single point]
9 | CC(=O)c1ccc(NC(=O)COC(=O)COc2ccc(C3SCCCS3)cc2)cc1 |  | inconclusive: 22.4 µM [inhibitor, partial curve, poor fit]
10 | O=C(c1ccc(F)cc1)N1CCc2nc(-c3ccc(Cl)cc3)nc(-c3ccccc3)c2C1 |  | inconclusive: 44.7 µM [inhibitor, partial curve]
11 | Cc1cccc(C(=O)OCC(=O)NC(=O)NC2CCCCC2)c1 |  | inconclusive: 56.2 µM [inhibitor, partial curve, poor fit]
12 | Cc1ccc(C(=O)OCC(=O)N(C)C2CCS(=O)(=O)C2)cc1S(=O)(=O)N1CCCCC1 (configuration not stated) |  | inconclusive: 50.1 µM [inhibitor, partial curve, poor fit]
13 | COc1ccc(/C=C(\NC(=O)c2ccccc2)C(=O)N2CCC(C)CC2)cc1 |  | inconclusive: 63.1 µM [inhibitor, partial curve, poor fit]
14 | CCOC(=O)CN1C(=O)S/C(=C/c2ccc(C)o2)C1=O |  | inconclusive: 44.7 µM [inhibitor, partial curve, poor fit]
15 | Cc1ccc(NC(=O)CCNS(=O)(=O)c2ccc3c(c2)oc(=O)n3C)cc1 |  | inconclusive: 44.7 µM [inhibitor, partial curve, poor fit]
16 | O=C(CCNC(=O)c1ccco1)Nc1ccc(F)c(Cl)c1 |  | inconclusive: 44.7 µM [inhibitor, partial curve]
17 | O=C(CC1C(=O)N(c2ccccc2)C(=S)N1c1ccccc1)c1ccc(Br)cc1 (configuration not stated) |  | inconclusive: 50.1 µM [inhibitor, partial curve, poor fit]
18 | COc1ccc(C(CCN2CCCCC2)c2c(O)cc(OC)cc2OC)cc1 (configuration not stated) | inactive: 10.8% | 
19 | CN(C)C(=O)c1cccc2c1CCN2C(=O)c1ccc(F)cc1 | inactive: 27.1% | 
20 | CCOC(=O)C(=O)NNc1ccc(Cl)cc1 |  | inconclusive: 50.1 µM [inhibitor, partial curve, poor fit]
21 | C=CC[C@@H](CC(=O)N[C@H](CO)Cc1ccccc1)C(=O)N[C@@H](COC(=O)[C@@H](CC=C)Cc1ccc(F)cc1)Cc1ccccc1 |  | inconclusive: 112 µM [inhibitor, single point]

Row | Structure (SMILES) | activity change, negative = inhibition | Potency
22 | O=C(CSc1ncc(CO)n1Cc1ccccc1)Nc1ccc(C(F)(F)F)cc1 |  | inconclusive: 70.8 µM [inhibitor, partial curve, poor fit]
23 | CC(C)COc1ccc(C(=O)N2CCN(CCc3ccccn3)CC2)cc1 |  | inconclusive: 4.47 µM [inhibitor, partial curve, poor fit]
24 | COc1cc2c(cc1OC)C(c1ccccc1Cl)N(C)CC2 (configuration not stated) |  | inconclusive: 39.8 µM [inhibitor, partial curve, poor fit]
25 | CCOc1ccccc1C1NC(=O)N(CC(=O)Nc2cccc(CC)c2)C2=C1C(=O)OC2 (configuration not stated) | inactive: -4.06% | 
26 | Cc1ccc2nc(-c3ccco3)c(Cc3ccccc3)n2c1 |  | inconclusive: 0.501 µM [inhibitor, partial curve, poor fit]
27 | CC(C)Cn1c(N)c(C(=O)COC(=O)c2c(O)c(Cl)cc(Cl)c2Cl)c(=O)n(C)c1=O |  | inconclusive: 50.1 µM [inhibitor, partial curve, poor fit]
28 | S=c1[nH]cnc2scc(-c3ccc(Br)cc3)c12 | inactive: -12% | 
29 | Cc1ccc2nc(N3C(=O)C(O)=C(C(=O)c4ccc(C)o4)C3c3ccco3)sc2c1 (configuration not stated) |  | active: 0.562 µM
30 | CCOC(=O)C(NS(=O)(=O)c1ccccc1)(C(F)(F)F)P(=O)(OCC(C)C)OCC(C)C (configuration not stated) |  | inconclusive: 50.1 µM [inhibitor, partial curve, poor fit]
31 | CSc1nc(-c2ccco2)nn1S(C)(=O)=O |  | inconclusive: 35.5 µM [inhibitor, partial curve, poor fit]
32 | CC(C)(C)NC(=O)C(c1ccc(C(F)(F)F)cc1)n1c(=O)c(-c2ccco2)nc2ccccc21 (configuration not stated) |  | inconclusive: 44.7 µM [inhibitor, partial curve, poor fit]
33 | O=C(c1c[nH]c(C(=O)C(Cl)(Cl)Cl)c1)c1ccccc1Cl |  | inconclusive: 3.16 µM [inhibitor, full curve, poor fit]
34 | CCOc1ccccc1N(C)C(=O)c1ccc2c(=O)n3c(nc2c1)CCCCC3 | inactive: 8.79% | 
35 | Clc1cccc(-c2nc(NCc3cccnc3)c3ccccc3n2)c1 |  | inconclusive: 44.7 µM [inhibitor, partial curve]
36 | CCOC(=O)C(C)On1c(-n2nc(C)cc2C)nc2ccccc2c1=O (configuration not stated) |  | inconclusive: 2.51 µM [inhibitor, partial curve, poor fit]
37 | Nc1ncnc2c1c(-c1cccc(OCc3ccccc3)c1)cn2C1CC(CN2CCCC2)C1 (configuration not stated) |  | inconclusive: 2.43 µM [inhibitor, partial curve, poor fit]
38 | Cc1nnsc1C(=O)NNc1ccc(C(C)C)cc1 |  | inconclusive: 100 µM [inhibitor, partial curve, poor fit]
39 | Cc1cc(CNC(=O)COc2ccc(F)cc2F)c2ccccc2n1 | inactive: 1.36% | 
40 | O=C(c1ccc(C(F)(F)F)cc1)N1CCCC2(CC(c3cccnc3)=NO2)C1 (configuration not stated) | inactive: 4.88% [at 6.33 µM] | 
41 | COc1ccc(OC)c(NC(=O)/C=C/c2nc3ccccc3o2)c1 |  | inconclusive: 89.1 µM [inhibitor, partial curve, poor fit]
42 | COc1cc(CNc2ccc3[nH]c(=O)[nH]c3c2)ccc1OCc1ccc(F)cc1 |  | inconclusive: 70.8 µM [inhibitor, partial curve, poor fit]

Row | Structure (SMILES) | activity change, negative = inhibition | Potency
43 | C/C=C/Cn1c(SCCCc2ccccc2)nc2c1c(=O)[nH]c(=O)n2C |  | inactive and inconclusive: 35.5 µM [inhibitor, partial curve, poor fit]
44 | O=C(C1CCC(=O)N(C2CCCC2)C1)N1CCN(c2ccccc2Cl)CC1 (configuration not stated) | inactive: 7.3% | 
45 | COc1ccc(/C(C)=C2/SC(=S)N(CCC(=O)O)C2=O)cc1 |  | inconclusive: 44.7 µM [inhibitor, partial curve, poor fit]
46 | CCN1C(=O)C(CC(=O)NC2CCCCC2)Sc2ncccc21 (configuration not stated) | inactive: -3.19% | 
47 | CCOc1cc(CN2CCN(c3ccc(C(C)=O)cc3)CC2)ccc1OC |  | inconclusive: 2.51 µM [inhibitor, full curve, poor fit]
48 | COC(=O)C1=C(C)N(Cc2ccccc2C(F)(F)F)C(=NCc2ccc(OC)cc2)NC1c1cccc(Cl)c1 (configuration not stated) |  | inconclusive: 89.1 µM [inhibitor, single point]
49 | O=C(N/N=C/c1cccc(F)c1)C1CC1 | inactive: -20.7% | 
50 | Cc1ccc(C(=O)NC2(C(F)(F)F)C(=O)Nc3c2c(=O)[nH]c(=O)n3Cc2ccco2)cc1 (configuration not stated) |  | inconclusive: 0.631 µM [inhibitor, single point]
51 | Cc1ccc(OCc2ccc(-c3nc(C#N)c(N4CCC(C(N)=O)CC4)o3)o2)cc1 |  | inconclusive: 50.1 µM [inhibitor, partial curve, poor fit]
52 | CCCOc1ccc(CN(C(=O)c2nc(SC(C)C)ncc2Cl)C2CCS(=O)(=O)C2)cc1 (configuration not stated) | inactive: -15.3% | 
53 | Cc1nccn1CCOc1ccccc1Cl |  | inconclusive: 2.51 µM [inhibitor, full curve, poor fit]
54 | Cc1cc(NC(=O)C(C)OC(=O)c2cc3c(s2)CCC3)no1 (configuration not stated) |  | inconclusive: 112 µM [inhibitor, single point]
55 | O=[N+]([O-])c1ccc(NC(c2ccccc2)c2ccc3cccnc3c2O)cc1 (configuration not stated) |  | inconclusive: 25.1 µM [inhibitor, partial curve, poor fit]
56 | COC(=O)c1ccc(C(=O)OC)c(NC(=O)CSCC(=O)O)c1 |  | inconclusive: 35.5 µM [inhibitor, partial curve, poor fit]
57 | CC(C)OC(=O)CN1C(=O)C(=O)c2ccccc21 |  | inconclusive: 112 µM [inhibitor, single point]
58 | FC(F)(F)c1cccc(Cn2nnnc2-c2cc(Cl)cc(Cl)c2)c1 |  | inconclusive: 31.6 µM [inhibitor, partial curve, poor fit]
59 | COCCNC(=O)[C@H]1C[C@H](Oc2ccccc2)CN1Cc1ccc(C)o1 | inactive: 38.8% | 
60 | S=C(NCc1ccccc1)NCc1ccc(Cl)cc1Cl |  | inconclusive: 50.1 µM [inhibitor, partial curve, poor fit]
61 | CCCCC(=O)Nc1ccc(NC(=O)c2cccc3c(Br)cccc23)cc1OC | inactive: -22.7% | 
62 | CC(C)Nc1ncnc2c1CN(C1CCNC1)C(=O)CN2C (configuration not stated) |  | inconclusive: 2.51 µM [inhibitor, partial curve]
